For this assay, the target named is WIPF1 (human) (UniProt O43516). The experiment in a line: co-IP; cell extracts incubated with antibodies against WIPF1 or RhoA, then protein A/G-Sepharose overnight at 4 C; washed with lysis buffer and ice-cold PBS; immunoblot. (In general: In western blotting, separated proteins are transferred to a membrane and probed.)

Chains of the proteins cited; added tags and fusions are not shown.
UniProt O43516: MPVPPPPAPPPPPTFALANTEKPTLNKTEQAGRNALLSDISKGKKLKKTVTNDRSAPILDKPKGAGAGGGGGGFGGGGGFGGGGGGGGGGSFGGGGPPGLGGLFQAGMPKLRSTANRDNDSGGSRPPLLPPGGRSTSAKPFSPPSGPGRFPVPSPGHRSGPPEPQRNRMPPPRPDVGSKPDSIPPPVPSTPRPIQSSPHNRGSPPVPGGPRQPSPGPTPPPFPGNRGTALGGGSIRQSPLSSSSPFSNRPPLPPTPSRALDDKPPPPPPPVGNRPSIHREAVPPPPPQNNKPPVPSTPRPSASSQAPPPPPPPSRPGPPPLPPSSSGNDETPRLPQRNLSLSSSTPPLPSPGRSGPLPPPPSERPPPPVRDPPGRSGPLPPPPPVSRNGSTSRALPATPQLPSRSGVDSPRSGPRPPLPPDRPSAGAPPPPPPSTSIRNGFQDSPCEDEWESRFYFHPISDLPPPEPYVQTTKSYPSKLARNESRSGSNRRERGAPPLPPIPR
UniProt P61586: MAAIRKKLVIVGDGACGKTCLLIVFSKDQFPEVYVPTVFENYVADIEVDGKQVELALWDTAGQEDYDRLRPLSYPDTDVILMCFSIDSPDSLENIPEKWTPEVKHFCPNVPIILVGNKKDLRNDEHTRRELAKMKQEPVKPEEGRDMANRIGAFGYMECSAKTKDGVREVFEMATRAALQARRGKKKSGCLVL

These are yes or no findings as the source states them, for the method shown. Binding seen in cells or lysates may run through a third protein. Some binding calls cover weakened binding; strength is not graded here.

In the case of RhoA (from UniProt P61586 1-193), the binding entry is reported as “binds”.
